What all share (assay): log2 fold change, soluble protein after heating vs DMSO (PISA); higher = thermal stabilisation; K562 cells, 10 uM, 30 min; active = over 0.2 and 3.5 SD of the protein, either way, in both replicates (recomputed)
Compound in experiment [1]: CC1=C(SC2=C1C(=N[C@H](C3=NN=C(N32)C)CC(=O)N)C4=CC=C(C=C4)Cl)C
In a few lines:
(§1)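 Aliquots of K562 cells (2×10^6 cells/mL) treated with 10 μM compound for 30 min were heated for 3 min over 48°C-58°C. After pooling and extraction in PBS with 0.5% NP-40 at 4°C, soluble protein from a 21,000xg, 90 min spin was quantified by TMTpro 16plex LC-MS/MS with channel sums equalised. Thermal stability is expressed against control samples, from duplicates, as a log2 fold change.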

Amino acid sequences for entries named in this document (tags omitted). A change or cut given only in a name is not applied to a line headed by its entry.
UniProt Q13467, whole entry, looked up: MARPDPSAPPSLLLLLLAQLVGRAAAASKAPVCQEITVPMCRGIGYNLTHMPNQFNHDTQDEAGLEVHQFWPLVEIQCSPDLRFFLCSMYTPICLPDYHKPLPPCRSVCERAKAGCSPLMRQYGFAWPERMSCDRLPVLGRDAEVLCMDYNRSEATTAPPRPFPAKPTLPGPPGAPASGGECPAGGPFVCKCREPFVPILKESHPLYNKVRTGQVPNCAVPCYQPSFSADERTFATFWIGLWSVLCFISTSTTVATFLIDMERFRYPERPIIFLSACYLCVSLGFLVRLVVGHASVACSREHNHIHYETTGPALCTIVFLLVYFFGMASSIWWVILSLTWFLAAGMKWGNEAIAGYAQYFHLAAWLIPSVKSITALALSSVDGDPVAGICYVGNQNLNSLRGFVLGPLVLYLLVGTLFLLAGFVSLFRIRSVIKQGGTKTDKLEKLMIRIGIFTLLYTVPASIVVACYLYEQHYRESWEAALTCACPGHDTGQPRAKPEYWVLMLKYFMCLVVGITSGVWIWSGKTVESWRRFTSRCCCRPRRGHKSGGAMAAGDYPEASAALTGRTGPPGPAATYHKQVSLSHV
UniProt P15407: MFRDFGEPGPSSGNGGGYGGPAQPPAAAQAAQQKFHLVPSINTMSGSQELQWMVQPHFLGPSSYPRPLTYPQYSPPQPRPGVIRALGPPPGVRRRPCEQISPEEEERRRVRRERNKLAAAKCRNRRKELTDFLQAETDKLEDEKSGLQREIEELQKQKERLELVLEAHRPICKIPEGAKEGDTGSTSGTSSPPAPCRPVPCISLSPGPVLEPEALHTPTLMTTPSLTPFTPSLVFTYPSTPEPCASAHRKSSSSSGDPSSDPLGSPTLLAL
UniProt Q96DB9: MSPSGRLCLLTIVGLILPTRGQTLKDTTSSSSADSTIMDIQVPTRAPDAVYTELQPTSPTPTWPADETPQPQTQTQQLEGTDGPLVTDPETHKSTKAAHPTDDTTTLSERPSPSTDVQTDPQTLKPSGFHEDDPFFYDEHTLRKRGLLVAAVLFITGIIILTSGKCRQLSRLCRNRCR
UniProt P01275: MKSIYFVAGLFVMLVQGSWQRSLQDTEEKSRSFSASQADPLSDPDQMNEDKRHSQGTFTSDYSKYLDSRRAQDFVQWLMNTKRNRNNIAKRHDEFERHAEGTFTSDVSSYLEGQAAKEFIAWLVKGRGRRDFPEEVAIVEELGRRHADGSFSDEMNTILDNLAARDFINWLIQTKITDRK
UniProt Q14697: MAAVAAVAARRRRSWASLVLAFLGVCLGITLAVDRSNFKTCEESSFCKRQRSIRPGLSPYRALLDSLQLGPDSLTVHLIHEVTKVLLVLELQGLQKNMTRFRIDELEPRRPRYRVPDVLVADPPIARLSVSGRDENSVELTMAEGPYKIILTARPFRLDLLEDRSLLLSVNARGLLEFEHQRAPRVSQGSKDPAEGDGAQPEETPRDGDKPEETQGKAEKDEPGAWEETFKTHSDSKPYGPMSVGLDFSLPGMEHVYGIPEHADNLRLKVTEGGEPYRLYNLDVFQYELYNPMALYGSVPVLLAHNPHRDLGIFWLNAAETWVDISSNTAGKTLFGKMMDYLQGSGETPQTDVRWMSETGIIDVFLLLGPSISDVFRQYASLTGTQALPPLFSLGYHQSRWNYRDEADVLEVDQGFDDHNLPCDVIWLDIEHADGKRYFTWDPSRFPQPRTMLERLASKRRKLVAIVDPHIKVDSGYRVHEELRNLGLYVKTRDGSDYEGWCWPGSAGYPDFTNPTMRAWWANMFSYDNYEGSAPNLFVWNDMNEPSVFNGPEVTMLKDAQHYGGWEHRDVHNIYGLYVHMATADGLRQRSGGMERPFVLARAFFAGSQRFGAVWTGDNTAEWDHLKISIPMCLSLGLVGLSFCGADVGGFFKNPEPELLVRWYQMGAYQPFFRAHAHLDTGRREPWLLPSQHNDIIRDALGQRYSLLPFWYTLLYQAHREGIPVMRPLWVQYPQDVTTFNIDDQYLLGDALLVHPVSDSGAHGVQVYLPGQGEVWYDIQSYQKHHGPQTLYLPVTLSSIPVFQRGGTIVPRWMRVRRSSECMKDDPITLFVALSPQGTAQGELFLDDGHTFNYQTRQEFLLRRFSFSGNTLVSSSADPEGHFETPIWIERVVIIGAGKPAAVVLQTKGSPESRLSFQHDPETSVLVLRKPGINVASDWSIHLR
UniProt Q5TBA9: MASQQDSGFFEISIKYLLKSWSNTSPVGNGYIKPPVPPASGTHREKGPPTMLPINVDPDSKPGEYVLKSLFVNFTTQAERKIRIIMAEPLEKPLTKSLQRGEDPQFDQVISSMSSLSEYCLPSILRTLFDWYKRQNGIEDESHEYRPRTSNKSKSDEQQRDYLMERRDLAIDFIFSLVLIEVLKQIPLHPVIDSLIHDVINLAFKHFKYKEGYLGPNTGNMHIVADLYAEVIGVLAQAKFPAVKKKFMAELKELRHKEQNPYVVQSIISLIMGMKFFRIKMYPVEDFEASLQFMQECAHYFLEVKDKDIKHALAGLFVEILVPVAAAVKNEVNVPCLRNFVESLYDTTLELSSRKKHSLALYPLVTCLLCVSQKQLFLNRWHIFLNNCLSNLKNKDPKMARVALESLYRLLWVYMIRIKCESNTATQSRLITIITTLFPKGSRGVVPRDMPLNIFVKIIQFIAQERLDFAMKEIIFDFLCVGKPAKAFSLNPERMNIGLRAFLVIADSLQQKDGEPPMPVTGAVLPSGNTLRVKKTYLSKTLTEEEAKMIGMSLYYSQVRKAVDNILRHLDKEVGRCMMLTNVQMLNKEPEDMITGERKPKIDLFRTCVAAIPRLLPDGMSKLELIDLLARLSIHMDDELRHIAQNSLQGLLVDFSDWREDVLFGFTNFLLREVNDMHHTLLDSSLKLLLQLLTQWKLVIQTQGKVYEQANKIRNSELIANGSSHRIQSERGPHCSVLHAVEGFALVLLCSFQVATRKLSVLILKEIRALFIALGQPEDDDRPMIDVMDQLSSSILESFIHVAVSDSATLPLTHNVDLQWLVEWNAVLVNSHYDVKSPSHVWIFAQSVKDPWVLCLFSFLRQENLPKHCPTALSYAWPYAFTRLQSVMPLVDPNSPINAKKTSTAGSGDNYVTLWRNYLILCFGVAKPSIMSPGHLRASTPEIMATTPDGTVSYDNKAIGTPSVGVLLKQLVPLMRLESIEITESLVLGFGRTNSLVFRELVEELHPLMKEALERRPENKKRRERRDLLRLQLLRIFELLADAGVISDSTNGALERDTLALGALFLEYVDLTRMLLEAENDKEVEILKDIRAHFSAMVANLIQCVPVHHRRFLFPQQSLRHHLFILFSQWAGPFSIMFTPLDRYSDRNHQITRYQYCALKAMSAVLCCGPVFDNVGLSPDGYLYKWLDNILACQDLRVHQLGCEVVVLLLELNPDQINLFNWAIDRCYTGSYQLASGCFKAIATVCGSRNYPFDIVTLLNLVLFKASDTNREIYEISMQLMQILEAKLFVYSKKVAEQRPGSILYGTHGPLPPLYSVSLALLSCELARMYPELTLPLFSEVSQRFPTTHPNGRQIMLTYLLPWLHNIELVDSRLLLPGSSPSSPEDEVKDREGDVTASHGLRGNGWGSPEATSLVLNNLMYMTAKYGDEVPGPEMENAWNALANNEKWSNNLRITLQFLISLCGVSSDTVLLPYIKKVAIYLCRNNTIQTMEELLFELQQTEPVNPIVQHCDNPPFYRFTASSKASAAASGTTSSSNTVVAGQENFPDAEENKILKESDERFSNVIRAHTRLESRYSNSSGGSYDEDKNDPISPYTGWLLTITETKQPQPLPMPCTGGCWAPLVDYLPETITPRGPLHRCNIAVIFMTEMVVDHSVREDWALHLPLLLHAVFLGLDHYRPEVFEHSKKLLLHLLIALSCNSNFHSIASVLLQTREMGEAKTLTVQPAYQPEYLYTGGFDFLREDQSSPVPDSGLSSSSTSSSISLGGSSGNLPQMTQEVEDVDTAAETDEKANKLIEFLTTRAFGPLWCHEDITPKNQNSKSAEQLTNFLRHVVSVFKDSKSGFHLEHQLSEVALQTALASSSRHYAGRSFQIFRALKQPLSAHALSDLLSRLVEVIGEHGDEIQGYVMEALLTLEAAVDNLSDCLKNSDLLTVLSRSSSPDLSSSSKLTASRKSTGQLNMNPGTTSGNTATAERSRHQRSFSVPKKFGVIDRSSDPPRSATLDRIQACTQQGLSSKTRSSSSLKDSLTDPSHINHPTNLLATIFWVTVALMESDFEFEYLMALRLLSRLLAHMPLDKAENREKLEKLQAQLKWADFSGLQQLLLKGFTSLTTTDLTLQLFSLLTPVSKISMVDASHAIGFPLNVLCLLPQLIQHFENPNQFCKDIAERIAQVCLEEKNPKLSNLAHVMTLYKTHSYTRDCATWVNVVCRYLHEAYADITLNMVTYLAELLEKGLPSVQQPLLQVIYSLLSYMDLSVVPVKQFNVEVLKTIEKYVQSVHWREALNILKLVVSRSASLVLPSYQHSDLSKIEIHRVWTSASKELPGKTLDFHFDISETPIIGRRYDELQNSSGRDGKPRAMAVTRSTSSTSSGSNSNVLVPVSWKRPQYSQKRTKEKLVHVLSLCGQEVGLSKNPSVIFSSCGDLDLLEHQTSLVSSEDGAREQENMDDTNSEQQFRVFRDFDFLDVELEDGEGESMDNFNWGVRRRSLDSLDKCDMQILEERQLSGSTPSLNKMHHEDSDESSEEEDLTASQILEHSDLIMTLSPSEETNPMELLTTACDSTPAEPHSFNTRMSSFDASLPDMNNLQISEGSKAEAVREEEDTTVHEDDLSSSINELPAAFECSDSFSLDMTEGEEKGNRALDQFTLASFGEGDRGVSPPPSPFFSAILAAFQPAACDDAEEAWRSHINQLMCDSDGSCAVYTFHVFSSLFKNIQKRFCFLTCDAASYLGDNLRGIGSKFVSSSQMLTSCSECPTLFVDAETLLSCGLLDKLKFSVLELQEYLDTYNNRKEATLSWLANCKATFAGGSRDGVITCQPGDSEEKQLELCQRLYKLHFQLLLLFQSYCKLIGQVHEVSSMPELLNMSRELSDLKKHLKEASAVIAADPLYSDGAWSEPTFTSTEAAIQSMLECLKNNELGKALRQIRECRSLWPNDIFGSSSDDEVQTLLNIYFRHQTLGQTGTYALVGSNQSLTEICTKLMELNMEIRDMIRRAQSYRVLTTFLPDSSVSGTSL
UniProt Q8IY81: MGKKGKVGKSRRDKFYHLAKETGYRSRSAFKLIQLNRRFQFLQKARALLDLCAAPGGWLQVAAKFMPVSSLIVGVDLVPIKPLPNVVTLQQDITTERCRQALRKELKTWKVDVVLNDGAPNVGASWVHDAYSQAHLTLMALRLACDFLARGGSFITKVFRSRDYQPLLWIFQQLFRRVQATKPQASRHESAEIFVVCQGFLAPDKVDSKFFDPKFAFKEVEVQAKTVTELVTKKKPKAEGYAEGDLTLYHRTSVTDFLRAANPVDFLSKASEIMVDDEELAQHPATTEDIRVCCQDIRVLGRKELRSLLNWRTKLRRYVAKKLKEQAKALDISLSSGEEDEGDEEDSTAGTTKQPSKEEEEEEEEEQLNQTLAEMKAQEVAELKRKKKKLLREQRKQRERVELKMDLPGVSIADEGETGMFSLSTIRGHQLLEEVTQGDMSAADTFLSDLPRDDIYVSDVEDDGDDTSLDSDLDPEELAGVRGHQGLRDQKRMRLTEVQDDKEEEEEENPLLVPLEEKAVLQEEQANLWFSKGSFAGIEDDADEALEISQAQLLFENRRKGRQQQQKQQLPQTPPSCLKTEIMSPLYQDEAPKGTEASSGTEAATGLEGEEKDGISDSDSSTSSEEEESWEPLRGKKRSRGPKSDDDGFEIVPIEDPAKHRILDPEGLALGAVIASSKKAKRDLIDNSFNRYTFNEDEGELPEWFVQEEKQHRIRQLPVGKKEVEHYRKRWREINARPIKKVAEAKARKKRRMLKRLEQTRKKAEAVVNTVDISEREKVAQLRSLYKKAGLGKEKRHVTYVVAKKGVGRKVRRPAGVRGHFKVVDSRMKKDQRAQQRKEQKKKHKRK
UniProt P22083, whole entry, looked up: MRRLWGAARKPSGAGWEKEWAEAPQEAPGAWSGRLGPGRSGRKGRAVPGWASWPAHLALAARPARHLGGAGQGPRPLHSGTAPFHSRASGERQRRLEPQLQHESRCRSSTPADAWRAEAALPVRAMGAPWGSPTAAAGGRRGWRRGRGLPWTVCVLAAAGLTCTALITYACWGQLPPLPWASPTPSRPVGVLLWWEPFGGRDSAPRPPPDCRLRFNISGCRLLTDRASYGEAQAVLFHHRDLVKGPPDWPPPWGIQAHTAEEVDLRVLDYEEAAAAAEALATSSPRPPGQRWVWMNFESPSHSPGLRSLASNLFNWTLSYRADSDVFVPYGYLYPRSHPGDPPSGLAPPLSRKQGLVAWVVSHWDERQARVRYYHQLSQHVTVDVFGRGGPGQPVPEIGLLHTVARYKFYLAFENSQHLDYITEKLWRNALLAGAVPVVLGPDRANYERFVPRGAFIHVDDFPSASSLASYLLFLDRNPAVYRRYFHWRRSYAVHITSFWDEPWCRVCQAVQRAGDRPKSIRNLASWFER

Compound in experiment [2]: Cc1sc2c(c1C)C(c1ccc(Cl)cc1)=N[C@@H](CC(=O)OC(C)(C)C)c1nnc(C)n1-2
In a few lines: as §1

Compound in experiment [3]: c1ccc([C@@H]2C[C@H]2NC2CCNCC2)cc1
In a few lines: as §1

Compound in experiment [4]: C1=CC=C(C=C1)[C@H](COC2=CC3=C(C=C2)NC(=O)N3)NC(=O)C4=CC=CN(C4=O)CC5=CC(=C(C=C5)F)F
Summed up:
as §1

Compound in experiment [5]: CC1=C2C(=CC=C1)N=C(N(C2=O)C3=CC=CC=C3C)CN4C=NC5=C(N=CN=C54)N
Summed up: as §1

The other results are listed elsewhere or left out.

For FYTTD1 (UniProt Q96QD9), the figures for the log2 fold change in experiment [1], in experiment [2] and in experiment [3] were inactive: -0.226, inactive: 0.232 and inactive: 0.189, respectively.

Regarding FZD5 (UniProt Q13467), the log2 fold change in experiment [4] was inactive: -0.022; in experiment [2], inactive: -0.126.

For GALNT7 (UniProt H0YAH3), the log2 fold change was inactive: 0.045 in experiment [4], inactive: -0.083 in experiment [1], inactive: 0.136 in experiment [5] and inactive: -0.19 in experiment [3].

With FRYL isoform 2 (UniProt O94915), the results for the log2 fold change in experiment [1], in experiment [5] and in experiment [3] were inactive: -0.043, inactive: 0.507 and inactive: 0.025, respectively.

In the case of FOSL1 (UniProt P15407), the log2 fold change in experiment [4] was inactive: 0.061; in experiment [1], inactive: -0.027; in experiment [5], inactive: 0.139; in experiment [3], inactive: 0.061.

Regarding GALNT3 (UniProt Q14435), in experiment [2], the log2 fold change was inactive: -0.136.

Turning to GAA (UniProt P10253), the log2 fold change in experiment [5] was inactive: -0.042; in experiment [2] it was inactive: -0.085.

Regarding FPGS (UniProt Q05932), the log2 fold change is inactive: -0.072 in experiment [4], inactive: -0.069 in experiment [1], inactive: 0.117 in experiment [5] and inactive: 0.196 in experiment [3].

For GAL (UniProt P22466), the figures for the log2 fold change in experiment [4] and in experiment [5] were inactive: -0.104 and inactive: 0, respectively.

For the target GDPGP1 (UniProt Q6ZNW5), the values for the log2 fold change in experiment [1], in experiment [2] and in experiment [3] were inactive: 0.11, inactive: 0.067 and inactive: -0.041, respectively.

For the target GATAD2B (UniProt Q8WXI9), the log2 fold change in experiment [5] is inactive: 0.171; in experiment [2], inactive: -0.022.

For the target G6PC3 (UniProt Q9BUM1), the log2 fold change in experiment [5] is inactive: 0.053.

Take GATB (UniProt O75879): the results for the log2 fold change in experiment [5] and in experiment [2] were inactive: 0.123 and inactive: -0.035, respectively.

With FOXRED2 (UniProt Q8IWF2), the log2 fold change in experiment [1] was inactive: -0.103; in experiment [5] it was inactive: 0.195; in experiment [2] it was inactive: 0.033; in experiment [3], inactive: -0.066.

Consider GAB2 (UniProt Q9UQC2), for which the log2 fold change in experiment [1] was inactive: 0.153; in experiment [5], inactive: -0.059; in experiment [2], inactive: 0.396; in experiment [3] it was inactive: -0.034.

FXYD5 (UniProt Q96DB9): the log2 fold change in experiment [1] is inactive: 0.177; in experiment [5], inactive: 0.19; in experiment [3] it was inactive: -0.133.

Take GABPB1 (UniProt Q06547): the figures for the log2 fold change in experiment [4], in experiment [5] and in experiment [2] were inactive: -0.032, inactive: -0.102 and inactive: -0.201, respectively.

With GART (UniProt P22102), the log2 fold change in experiment [4] was inactive: -0.017; in experiment [1], inactive: 0.053; in experiment [5] it was inactive: 0.114; in experiment [2], inactive: -0.043; in experiment [3], inactive: -0.039.

Turning to GALNT6 (UniProt Q8NCL4), the log2 fold change in experiment [4] was inactive: 0.035; in experiment [2] it was inactive: 0.021.

On to FOXJ2 (UniProt Q9P0K8), for which the log2 fold change in experiment [1] is inactive: 0.014; in experiment [5] it was inactive: 0.186; in experiment [3], inactive: 0.15.

Take GCG (UniProt P01275): the log2 fold change in experiment [1] was inactive: 0.058; in experiment [3], inactive: 1.01.

For FRMD8 (UniProt Q9BZ67), the log2 fold change in experiment [1] is inactive: 0.159; in experiment [2], inactive: 0.157; in experiment [3] it was inactive: -0.377.

Take GANAB (UniProt Q14697): the log2 fold change in experiment [2] was inactive: -0.299.

As for FOXO3 (UniProt O43524), the log2 fold change in experiment [1] is inactive: 0.065; in experiment [5], inactive: 0.012; in experiment [2], inactive: 0.125; in experiment [3] it was inactive: -0.039.

FRY (UniProt Q5TBA9): the figures for the log2 fold change in experiment [4], in experiment [5] and in experiment [2] were inactive: 0.303, inactive: -0.006 and inactive: -0.044, respectively.

On to GDPD3 (UniProt Q7L5L3), for which the log2 fold change in experiment [5] is inactive: -0.295.

Regarding GATA2 (UniProt P23769), the log2 fold change in experiment [4] is inactive: 0.051; in experiment [1] it was inactive: 0.06; in experiment [5], inactive: -0.139; in experiment [3] it was inactive: -0.101.

FTSJ3 (UniProt Q8IY81): the log2 fold change in experiment [1] is inactive: -0.276; in experiment [3] it was inactive: 0.097.

Take GALNT10 (UniProt Q86SR1): the log2 fold change is inactive: 0.105 in experiment [4], inactive: -0.013 in experiment [1] and inactive: -0.058 in experiment [3].

For the target FUT4 (UniProt P22083), in experiment [2], the log2 fold change is inactive: 0.108.

As for GARS1 (UniProt H7C443), the log2 fold change in experiment [1] was inactive: 0.001; in experiment [5], inactive: 0.053; in experiment [2], inactive: 0.173; in experiment [3], inactive: 0.017.

Turning to GCFC2 isoform 3 (UniProt P16383), the log2 fold change in experiment [5] is inactive: -0.171; in experiment [2], inactive: 0.02.

The record behind these values is the supplement of paper PMC10849652.
